# Reference: the supplement of paper PMC4604168 (melanoma cell lines)
# The list shows a part of the results. Single values are uncertain, as repeats are few or missing.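 Imaging used 1,536-well plates; nuclei positive for cleaved PARP by antibody were divided by total DNA-stained nuclei to yield the apoptosis fraction. Doses for screening kept most cells viable, and cell lines differ markedly in resting and induced cleaved-PARP levels.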
# How the values were obtained:
# Experiment in all cases: cleaved PARP positive nuclei fraction relative to DMSO control; melanoma cells; higher = more apoptosis
# Settings in all cases: library dose: low library concentration; 72 h
# 501Mel = system: 501Mel
# A101D = system: A101D
# A2058 = system: A2058
# A375 = system: A375
# C32 = system: C32
# CBRC008 = system: CBRC008 (line from a melanoma biopsy)
# CBRC013 = system: CBRC013 (line from a melanoma biopsy)
# CBRC014 = system: CBRC014 (line from a melanoma biopsy)
# CBRC016 = system: CBRC016 (line from a melanoma biopsy)
# CBRC017 = system: CBRC017 (line from a melanoma biopsy)
Compound,cleaved PARP positive nuclei fraction (501Mel) [%],cleaved PARP positive nuclei fraction (A101D) [%],cleaved PARP positive nuclei fraction (A2058) [%],cleaved PARP positive nuclei fraction (A375) [%],cleaved PARP positive nuclei fraction (C32) [%],cleaved PARP positive nuclei fraction (CBRC008) [%],cleaved PARP positive nuclei fraction (CBRC013) [%],cleaved PARP positive nuclei fraction (CBRC014) [%],cleaved PARP positive nuclei fraction (CBRC016) [%],cleaved PARP positive nuclei fraction (CBRC017) [%]
"COc1cc([C@@H]2c3cc4c(cc3[C@@H](O[C@@H]3O[C@@H]5CO[C@@H](C)O[C@H]5[C@H](O)[C@H]3O)[C@H]3COC(=O)[C@H]23)OCO4)cc(OC)c1O [etoposide] + COc1cc(Nc2ncc(F)c(Nc3ccc4c(n3)NC(=O)C(C)(C)O4)n2)cc(OC)c1OC [Tamatinib] (first compound 0.02 µM, partner dose 0.4 µM)",46.3,106,130,72,82.7,307,104,81.2,60,124
"Cc1cc(Nc2cc(N3CCN(C)CC3)nc(Sc3ccc(NC(=O)C4CC4)cc3)n2)n[nH]1 [Tozasertib] + C[C@@H]1CCN(C(=O)CC#N)C[C@@H]1N(C)c1ncnc2[nH]ccc12 [CP690550] (first compound 0.006 µM, partner dose 1 µM)",95.2,41.7,151,103,34,59.9,109,195,55.8,106
"O=C(/C=C/c1cccnc1)NCCCCC1CCN(C(=O)c2ccccc2)CC1 + C[C@@H]1CCN(C(=O)CC#N)C[C@@H]1N(C)c1ncnc2[nH]ccc12 [CP690550] (first compound 0.01 µM, partner dose 1 µM)",98.6,154,158,43.9,64,2990,171,110,238,532
"CC[C@]1(O)C[C@H]2CN(CCc3c([nH]c4ccccc34)[C@@](C(=O)OC)(c3cc4c(cc3OC)N(C=O)[C@H]3[C@@](O)(C(=O)OC)[C@H](OC(C)=O)[C@]5(CC)C=CCN6CC[C@]43[C@@H]65)C2)C1 [vincristine] + CC(C)(C)c1cnc(CSc2cnc(NC(=O)C3CCNCC3)s2)o1 [SNS-032] (first compound 0.0001 µM, partner dose 0.01 µM)",74.5,129,848,145,286,165,92.7,81.1,59.6,80.8
"Cc1cn(-c2cc(NC(=O)c3ccc(C)c(Nc4nccc(-c5cccnc5)n4)c3)cc(C(F)(F)F)c2)cn1 [nilotinib] + COc1cc(Nc2ncc(F)c(Nc3ccc4c(n3)NC(=O)C(C)(C)O4)n2)cc(OC)c1OC [Tamatinib] (first compound 0.2 µM, partner dose 0.4 µM)",91.4,112,166,245,187,132,138,78.4,184,177
"O=C(/C=C/c1cccnc1)NCCCCC1CCN(C(=O)c2ccccc2)CC1 + OCCn1cc(-c2cnc3nnn(Cc4ccc5ncccc5c4)c3n2)cn1 [PF04217903] (first compound 0.01 µM, partner dose 1 µM)",141,87.2,94.7,216,42.7,2170,140,107,497,499
"Cc1cc(Nc2cc(N3CCN(C)CC3)nc(Sc3ccc(NC(=O)C4CC4)cc3)n2)n[nH]1 [Tozasertib] + C=CCn1c(=O)c2cnc(Nc3ccc(N4CCN(C)CC4)cc3)nc2n1-c1cccc(C(C)(C)O)n1 [MK1775] (first compound 0.006 µM, partner dose 0.02 µM)",71.8,98.5,103,183,96.8,153,110,104,184,74.9
"N#CC[C@H](C1CCCC1)n1cc(-c2ncnc3[nH]ccc23)cn1 [ruxolitinib] + O=C(O)c1ccc(-c2c[nH]c3ncc(-c4ccccc4)cc23)cc1C1CCCC1 [GSK650394] (first compound 1 µM, partner dose 0.16 µM)",69.8,37,103,71.8,102,214,174,104,114,111
"COc1cc([C@@H]2c3cc4c(cc3[C@@H](O[C@@H]3O[C@@H]5CO[C@@H](C)O[C@H]5[C@H](O)[C@H]3O)[C@H]3COC(=O)[C@H]23)OCO4)cc(OC)c1O [etoposide] + O=C(O)c1ccc(-c2c[nH]c3ncc(-c4ccccc4)cc23)cc1C1CCCC1 [GSK650394] (first compound 0.02 µM, partner dose 0.16 µM)",57.1,43.6,192,109,61.5,366,151,88.6,337,137
"Cc1cc(Nc2cc(N3CCN(C)CC3)nc(Sc3ccc(NC(=O)C4CC4)cc3)n2)n[nH]1 [Tozasertib] + O=C(CCCCCCC(=O)Nc1ccccc1)NO [vorinostat] (first compound 0.006 µM, partner dose 0.08 µM)",40,160,100,117,92.1,66.3,72.6,97.2,90.2,128
